# Results published in publication PMC3814758, “The Geminin and Idas Coiled Coils Preferentially Form a Heterodimer That Inhibits Geminin Function in DNA Replication Licensing*” (The Journal of Biological Chemistry, 2013).
# Results are given in words; binding and its absence hold for the method and conditions named. For part of these data: In cells and extracts the contact can be indirect. Some binding calls cover weakened binding; strength is not graded here. For part of these data: Where a sequence is shown, tags or fusion partners need not be part of it.
# T1: Cdt1 (115-353) (UniProt Q9H211)
# T1 sequence: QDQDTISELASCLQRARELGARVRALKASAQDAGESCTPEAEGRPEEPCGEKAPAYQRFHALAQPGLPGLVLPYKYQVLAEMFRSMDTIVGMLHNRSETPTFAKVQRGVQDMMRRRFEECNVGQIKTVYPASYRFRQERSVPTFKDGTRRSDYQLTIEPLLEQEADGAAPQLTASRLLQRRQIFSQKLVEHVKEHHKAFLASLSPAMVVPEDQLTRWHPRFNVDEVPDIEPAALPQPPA
# Key:
# [1] = target: full-length Geminin (Geminin-HA and Geminin-GFP) (human) (UniProt O75496); test: co-IP; U2OS cells transfected with Geminin-HA, Geminin-GFP and GFP, collected 24 h post-transfection; anti-HA (12CA5) immunoprecipitation, blots for GFP and HA
# [2] = target: full-length Geminin (Geminin-HA and Geminin-GFP) (human) (UniProt O75496); test: co-IP; U2OS cells transfected with Geminin-HA, Geminin-GFP and Idas-GFP, collected 24 h post-transfection; anti-HA (12CA5) immunoprecipitation, blots for GFP and HA
# Cdt1 (115-353) = target: T1, Cdt1 (115-353); test: SEC; equimolar amounts of purified tCdt1 and purified tGeminin-tIdas mixed; elution profile; data not shown; both purified
binding [1],binding (Cdt1 (115-353)),Binder,binding [2]
binds,–,"full-length Geminin (Geminin-HA and Geminin-GFP) (protein, UniProt O75496 1-209) MNPSMKQKQEEIKENIKNSSVPRRTLKMIQPSASGSLVGRENELSAGLSKRKHRNDHLTSTTSSPGVIVPESSENKNLGGVTQESFDLMIKENPSSQYWKEVAEKRRKALYEALKENEKLHKEIEQKDNEIARLKKENKELAEVAEHVQYMAELIERLNGEPLDNFESLDNQEFDSEEETVEDSLVEDSEIGTCAEGTVSSSTDAKPCI",no binding (condition: in the presence of Idas-GFP)
–,binds,"tIdas-tGeminin heterodimer (complex, Idas (Multicilin), residues 173-245; Geminin, human, residues 82-160; Preformed heterodimer; also called tGeminin-tIdas; Idas-Geminin heterodimer; source: co-expression in Escherichia coli, purified (IMAC by the His tag on Idas, size exclusion chromatography); copies: 1 + 1) chain 1: PDVPPPEQYWKEVADQNQRALGDALVENNQLHVTLTQKQEEIASLKERNVQLKELASRTRHLASVLDKLMITQ chain 2: TQESFDLMIKENPSSQYWKEVAEKRRKALYEALKENEKLHKEIEQKDNEIARLKKENKELAEVAEHVQYMAELIERLNG",–
